# Reference: the supplement of paper PMC4604168 (melanoma cell lines)
# The other results are listed elsewhere or left out. Repeats are few or missing, and single values can be far off.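 The apoptosis fraction was the count of cleaved-PARP antibody-stained nuclei relative to all DNA-stained nuclei, imaged in 1,536-well plates. Screening doses were set so most cells survived, and baseline and induced cleaved-PARP levels vary greatly across cell lines.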
# Assays:
# Assay in all cases: cleaved PARP positive nuclei fraction relative to DMSO control; melanoma cells; higher = more apoptosis
# Settings in all cases: library dose: low library concentration; 72 h
# COLO792 = system: COLO792
# COLO800 = system: COLO800
# COLO829 = system: COLO829
# G361 = system: G361
# IPC-298 = system: IPC-298
# IST-MEL1 = system: IST-MEL1
# LB2518-MEL = system: LB2518-MEL
# LOXIMVI = system: LOXIMVI
# MEL-HO = system: MEL-HO
# MZ2-MEL = system: MZ2-MEL
# MeWo = system: MeWo
# RPMI7951 = system: RPMI7951
# RVH-421 = system: RVH-421
# SkMel28 = system: SkMel28
# SkMel2 = system: SkMel2
# SkMel30 = system: SkMel30
# SkMel5 = system: SkMel5
# UACC257 = system: UACC257
# UACC62 = system: UACC62
smiles,measurement,setting,value
"O=C(Nc1cccc(Cl)c1)Nc1ncc(CCNc2ncnc3ccsc23)s1 + CN(C)S(=O)(=O)c1ccc2c(c1)/C(=C/c1cc3c([nH]1)CCCC3)C(=O)N2 [SU6656] (first compound 0.0008 µM, partner dose 0.4 µM)",cleaved PARP positive nuclei fraction,COLO792,139%
same,cleaved PARP positive nuclei fraction,COLO800,18%
same,cleaved PARP positive nuclei fraction,COLO829,67.6%
same,cleaved PARP positive nuclei fraction,G361,167%
same,cleaved PARP positive nuclei fraction,IPC-298,143%
same,cleaved PARP positive nuclei fraction,IST-MEL1,141%
same,cleaved PARP positive nuclei fraction,LB2518-MEL,86.2%
same,cleaved PARP positive nuclei fraction,LOXIMVI,102%
same,cleaved PARP positive nuclei fraction,MEL-HO,37.5%
same,cleaved PARP positive nuclei fraction,MZ2-MEL,133%
same,cleaved PARP positive nuclei fraction,MeWo,58.7%
same,cleaved PARP positive nuclei fraction,RPMI7951,129%
same,cleaved PARP positive nuclei fraction,RVH-421,63.8%
same,cleaved PARP positive nuclei fraction,SkMel28,138%
same,cleaved PARP positive nuclei fraction,SkMel2,62.9%
same,cleaved PARP positive nuclei fraction,SkMel30,207%
same,cleaved PARP positive nuclei fraction,SkMel5,600%
same,cleaved PARP positive nuclei fraction,UACC257,69.4%
same,cleaved PARP positive nuclei fraction,UACC62,182%
"OCc1c[nH]c2ccccc12 [Indole-3-carbinol] + Cc1ccc(NC(=O)c2cccc(N(C)C)c2)cc1NC(=O)c1ccc(O)cc1 [ZM336372] (first compound 0.8 µM, partner dose 2 µM)",cleaved PARP positive nuclei fraction,COLO792,74.9%
same,cleaved PARP positive nuclei fraction,COLO800,90.2%
same,cleaved PARP positive nuclei fraction,COLO829,60%
same,cleaved PARP positive nuclei fraction,G361,56.2%
same,cleaved PARP positive nuclei fraction,IPC-298,109%
same,cleaved PARP positive nuclei fraction,IST-MEL1,47.1%
same,cleaved PARP positive nuclei fraction,LB2518-MEL,53%
same,cleaved PARP positive nuclei fraction,LOXIMVI,56.9%
same,cleaved PARP positive nuclei fraction,MEL-HO,71.8%
same,cleaved PARP positive nuclei fraction,MZ2-MEL,101%
same,cleaved PARP positive nuclei fraction,MeWo,208%
same,cleaved PARP positive nuclei fraction,RPMI7951,79.7%
same,cleaved PARP positive nuclei fraction,RVH-421,117%
same,cleaved PARP positive nuclei fraction,SkMel28,45.6%
same,cleaved PARP positive nuclei fraction,SkMel2,92.7%
same,cleaved PARP positive nuclei fraction,SkMel30,614%
same,cleaved PARP positive nuclei fraction,SkMel5,43.7%
same,cleaved PARP positive nuclei fraction,UACC257,126%
same,cleaved PARP positive nuclei fraction,UACC62,98.4%
"COCC[n+]1c2c(n(Cc3cnccn3)c1C)C(=O)c1ccccc1C2=O + COc1cc(Nc2ncc(F)c(Nc3ccc4c(n3)NC(=O)C(C)(C)O4)n2)cc(OC)c1OC [Tamatinib] (first compound 0.0004 µM, partner dose 0.4 µM)",cleaved PARP positive nuclei fraction,COLO792,148%
same,cleaved PARP positive nuclei fraction,COLO800,94.3%
same,cleaved PARP positive nuclei fraction,COLO829,83.5%
same,cleaved PARP positive nuclei fraction,G361,94.5%
same,cleaved PARP positive nuclei fraction,IPC-298,61.5%
same,cleaved PARP positive nuclei fraction,IST-MEL1,76.3%
same,cleaved PARP positive nuclei fraction,LB2518-MEL,134%
same,cleaved PARP positive nuclei fraction,LOXIMVI,15.6%
same,cleaved PARP positive nuclei fraction,MEL-HO,79.7%
same,cleaved PARP positive nuclei fraction,MZ2-MEL,218%
same,cleaved PARP positive nuclei fraction,MeWo,65.3%
same,cleaved PARP positive nuclei fraction,RPMI7951,127%
same,cleaved PARP positive nuclei fraction,RVH-421,155%
same,cleaved PARP positive nuclei fraction,SkMel28,145%
same,cleaved PARP positive nuclei fraction,SkMel2,120%
same,cleaved PARP positive nuclei fraction,SkMel30,51.3%
same,cleaved PARP positive nuclei fraction,SkMel5,172%
same,cleaved PARP positive nuclei fraction,UACC257,963%
same,cleaved PARP positive nuclei fraction,UACC62,139%
"Clc1ccc(Nc2nnc(Cc3ccncc3)c3ccccc23)cc1 [vatalanib] + OCCn1cc(-c2cnc3nnn(Cc4ccc5ncccc5c4)c3n2)cn1 [PF04217903] (first compound 2 µM, partner dose 1 µM)",cleaved PARP positive nuclei fraction,COLO792,74.8%
same,cleaved PARP positive nuclei fraction,COLO800,95%
same,cleaved PARP positive nuclei fraction,COLO829,97.1%
same,cleaved PARP positive nuclei fraction,G361,68.8%
same,cleaved PARP positive nuclei fraction,IPC-298,147%
same,cleaved PARP positive nuclei fraction,IST-MEL1,48.9%
same,cleaved PARP positive nuclei fraction,LB2518-MEL,96.6%
same,cleaved PARP positive nuclei fraction,LOXIMVI,28.9%
same,cleaved PARP positive nuclei fraction,MEL-HO,234%
same,cleaved PARP positive nuclei fraction,MZ2-MEL,102%
same,cleaved PARP positive nuclei fraction,MeWo,110%
same,cleaved PARP positive nuclei fraction,RPMI7951,96.5%
same,cleaved PARP positive nuclei fraction,RVH-421,94.2%
same,cleaved PARP positive nuclei fraction,SkMel28,162%
same,cleaved PARP positive nuclei fraction,SkMel2,125%
same,cleaved PARP positive nuclei fraction,SkMel30,120%
same,cleaved PARP positive nuclei fraction,SkMel5,104%
same,cleaved PARP positive nuclei fraction,UACC257,40.7%
same,cleaved PARP positive nuclei fraction,UACC62,46.3%
"O=C(CCCCCCC(=O)Nc1ccccc1)NO [vorinostat] + O=C(O)c1ccc(-c2c[nH]c3ncc(-c4ccccc4)cc23)cc1C1CCCC1 [GSK650394] (first compound 0.08 µM, partner dose 0.16 µM)",cleaved PARP positive nuclei fraction,COLO792,115%
same,cleaved PARP positive nuclei fraction,COLO800,104%
same,cleaved PARP positive nuclei fraction,COLO829,124%
same,cleaved PARP positive nuclei fraction,G361,94.3%
same,cleaved PARP positive nuclei fraction,IPC-298,291%
same,cleaved PARP positive nuclei fraction,IST-MEL1,35.8%
same,cleaved PARP positive nuclei fraction,LB2518-MEL,105%
same,cleaved PARP positive nuclei fraction,LOXIMVI,47.6%
same,cleaved PARP positive nuclei fraction,MEL-HO,65%
same,cleaved PARP positive nuclei fraction,MZ2-MEL,109%
same,cleaved PARP positive nuclei fraction,MeWo,119%
same,cleaved PARP positive nuclei fraction,RPMI7951,98.3%
same,cleaved PARP positive nuclei fraction,RVH-421,113%
same,cleaved PARP positive nuclei fraction,SkMel28,69.8%
same,cleaved PARP positive nuclei fraction,SkMel2,81%
same,cleaved PARP positive nuclei fraction,SkMel30,66%
same,cleaved PARP positive nuclei fraction,SkMel5,63.4%
same,cleaved PARP positive nuclei fraction,UACC257,141%
same,cleaved PARP positive nuclei fraction,UACC62,395%
"CO[C@@H]1[C@H](N(C)C(=O)c2ccccc2)C[C@H]2O[C@]1(C)n1c3ccccc3c3c4c(c5c6ccccc6n2c5c31)C(=O)NC4 [Midostaurin] + O=C(Nc1cccc(Cl)c1)Nc1ncc(CCNc2ncnc3ccsc23)s1 [SNS314] (first compound 0.08 µM, partner dose 0.0008 µM)",cleaved PARP positive nuclei fraction,COLO792,248%
same,cleaved PARP positive nuclei fraction,COLO800,234%
same,cleaved PARP positive nuclei fraction,COLO829,85%
same,cleaved PARP positive nuclei fraction,G361,101%
same,cleaved PARP positive nuclei fraction,IPC-298,88%
same,cleaved PARP positive nuclei fraction,IST-MEL1,70.8%
same,cleaved PARP positive nuclei fraction,LB2518-MEL,114%
same,cleaved PARP positive nuclei fraction,LOXIMVI,113%
same,cleaved PARP positive nuclei fraction,MEL-HO,47.7%
same,cleaved PARP positive nuclei fraction,MZ2-MEL,202%
same,cleaved PARP positive nuclei fraction,MeWo,247%
same,cleaved PARP positive nuclei fraction,RPMI7951,75.2%
same,cleaved PARP positive nuclei fraction,RVH-421,52.5%
same,cleaved PARP positive nuclei fraction,SkMel28,58.7%
same,cleaved PARP positive nuclei fraction,SkMel2,139%
same,cleaved PARP positive nuclei fraction,SkMel30,124%
same,cleaved PARP positive nuclei fraction,SkMel5,69.3%
same,cleaved PARP positive nuclei fraction,UACC257,67.6%
same,cleaved PARP positive nuclei fraction,UACC62,205%

# An excerpt of these results, bar-delimited:
smiles | measurement | setting | value
O=C(CCCCCCC(=O)Nc1ccccc1)NO [vorinostat] + O=C(O)c1ccc(-c2c[nH]c3ncc(-c4ccccc4)cc23)cc1C1CCCC1 [GSK650394] (first compound 0.08 µM, partner dose 0.16 µM) | cleaved PARP positive nuclei fraction | RVH-421 | 113%
same | cleaved PARP positive nuclei fraction | SkMel28 | 69.8%
same | cleaved PARP positive nuclei fraction | SkMel2 | 81%
same | cleaved PARP positive nuclei fraction | SkMel30 | 66%
